The assay has as its target M2-tagged BatR (3xFLAG-BatR, PA3049) (P. aeruginosa PAO1). The experiment in a line: affinity purification with mass spectrometry.

No constants are given. Whether binding was seen depends on the method and setting. Binding seen in cells or lysates may run through a third protein. These calls come from enrichment with a bait or labelling near it, and not all partners need be listed.

B1: Glycerol phosphate kinase (GlpK, PA3582), endogenous (enzyme, UniProt Q51390 1-505)
chain: MTDKHNKKYVVALDQGTTSSRAIVFDRDANVVSQAQREFAQFYPQAGWVEHDPMEIWATQSSTLVEALAQASIEHDQVAAIGITNQRETTVVWDRHSGRPIHNAIVWQCRRSAAICAQLKRDGLEDYIRETTGLVTDPYFSGTKLKWILDNVEGARERARNGDLLFGTIDTWLIWKLTEGKVHVTDYTNASRTMLFNIHSRDWDARMLEVLDIPRSMLPEVRNSSEVYGNARIGGVGGGELPIAGIAGDQQAALFGQMCVEPGQAKNTYGTGCFLLMHTGDKAVKSTHGLLTTIACGPRGEVGYALEGAVFNGGSTVQWLRDELKVINDSFDSEYFATKVKDSNGVYLVPAFTGLGAPYWDPYARGAVFGLTRGVKADHLIRATLESIAYQTRDVLDAMQRDAGERLRALRVDGGAVANNFLMQFQADILGTRVERPVMRETTALGAAYLAGLACGFWSSLDELKSKAVIERVFEPECDEPRREKLYAGWKKAVERTRGWDDGEL
For B1, the binding result is given as “binds”.

Values taken from doi:10.1101/2024.04.17.589660.
